# PubChem BioAssay AID504791 – Drosophila RNAi Screening Center | 2011
# Test: 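Genes whose knock-down strengthens or weakens small-RNA reporter silencing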 (primary screen)
# Cells: Drosophila S2-derived reporter cells
# Reagent: long dsRNA against Drosophila genes, about 150-250 ng dsRNA per well (siRNA assay); about 80-120 ng (miRNA assay)
# Duration: about 5 days (siRNA assay); about 4 days (miRNA assay)
# Challenge: copper sulfate induction of reporters: 25 µM (siRNA assay); 200 mM stated (miRNA assay), 1-2 days before reading
# Measurement: 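Per-well ratio of Renilla over firefly light, expressed relative to that plate's average ratio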
# Active means: 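First-pass picks had plate-scaled ratios over 1.5 for the siRNA assay, over 1.6 for the miRNA assay, or under 0.6; two distinct dsRNAs had to score alike on retest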
# The deposit covers about 23,000 reagents; below is a random part of those that have a named target and a result. Of all reagents, 199 (0.86%) got an active call. 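Plate-scaled ratios behind the calls are not deposited; printed light signals are raw; many rows marked increased or decreased are still called inactive.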 The numbers tell different reagents against one gene apart. The record does not give: the direction of the score.
Target gene,reagent no.,stable siRNA reporter change,miRNA reporter change,"stable assay Renilla, run 1 (luminescence)","stable assay firefly, run 1 (luminescence)",Outcome
CG6592,1,,,6352,4.07e5,inactive
Fhos,1,,,4531,3.34e5,inactive
Fhos,2,,,9351,4.25e5,inactive
Fhos,3,,,7719,3.71e5,inactive
Fhos,4,,,5308,3.03e5,inactive
CG18746,1,,,5886,4.45e5,inactive
Polr1A,1,,,8488,4.34e5,inactive
Lac,1,,,8484,4.34e5,inactive
CG31823,1,,,7415,3.65e5,inactive
qtc,1,,,13244,4.57e5,inactive
qtc,2,,,7580,3.38e5,inactive
CG10081,1,,,6688,3.51e5,inactive
CG31782 (retired record),1,,,6711,5.55e5,inactive
CG31782 (retired record),2,,,4660,4.37e5,inactive
Sk2,1,,,7179,5.53e5,inactive
pk,1,reporter ratio raised past the hit cutoff,,12218,4.40e5,active
pk,2,,,7295,4.12e5,inactive
pk,3,,,8002,5.36e5,inactive
tra2,1,,,8231,4.61e5,inactive
CG8677,1,,reporter ratio raised past the hit cutoff,10064,4.64e5,inactive
morgue,1,,,15081,1.09e6,inactive
ND-23,1,,,7852,4.04e5,inactive
Spn85F,1,,,5222,5.08e5,inactive
term,1,,,8119,4.03e5,inactive
CG14744,1,,,6451,3.42e5,inactive
ppk29,1,,,6379,5.88e5,inactive
CG8665,1,,,6555,4.22e5,inactive
CG15435,1,,,8871,4.66e5,inactive
Cyp6a18,1,,,6632,4.18e5,inactive
CG5707,1,,,13374,4.97e5,inactive
CG12780,1,,,6274,2.74e5,inactive
CG6983,1,,,7725,4.57e5,inactive
S-Lap3,1,,,7524,5.11e5,inactive
Tsen54,1,,,6984,4.65e5,inactive
sesB,1,,,4979,4.29e5,inactive

Just “stable assay firefly, run 1 (luminescence)” (5 entries from above):
Sk2: 5.53e5
pk #1: 4.40e5
pk #2: 4.12e5
pk #3: 5.36e5
tra2: 4.61e5

More records follow.
Target gene,reagent no.,stable siRNA reporter change,miRNA reporter change,"stable assay Renilla, run 1 (luminescence)","stable assay firefly, run 1 (luminescence)",Outcome
CG4324,1,,,6442,4.57e5,inactive
D19B,1,,,6627,3.52e5,inactive
CG33639,1,,,5843,4.54e5,inactive
CG33639,2,,,4555,3.96e5,inactive
ppk3,1,,,6687,4.22e5,inactive
CG14314,1,,,6570,2.82e5,inactive
x16,1,,,5002,3.89e5,inactive
x16,2,,,11229,8.10e5,inactive
GAPsec,1,,,7638,4.97e5,inactive
ball,1,,,8154,4.13e5,inactive
CG7567,1,,,5875,3.70e5,inactive
RpL18,1,reporter ratio raised past the hit cutoff,,5867,2.82e5,inactive
RpL18,2,,,9540,4.08e5,inactive
CR33283,1,,,3124,3.52e5,inactive
CG32137,1,,,6136,4.70e5,inactive
CG32137,2,,,5212,4.23e5,inactive
CG14410,1,,,5676,4.88e5,inactive
CG6527,1,,,5754,5.57e5,inactive
up,1,,reporter ratio lowered past the hit cutoff,7330,5.20e5,active
PpY-55A,1,,,6182,3.55e5,inactive
PpY-55A,2,,,4147,2.97e5,inactive
CG13928,1,,,6975,3.48e5,inactive
